Measured values from patent WO2023074749A1.
No constants are given. Whether binding was seen depends on the method and setting. Some binding calls cover weakened binding; strength is not graded here.

Molecular target: recombinant HER2-Fc protein (human) (UniProt P04626)
Test: ELISA; peptide on solid phase, recombinant HER2-Fc, HRP-labeled anti-IgG

Row | binding | Binder
1 | binds | ERPYACSCRNCAGPFNLDEYRQRHIRIHTGQKP [pertuzumab alternative molecule Rank 1]
2 | binds | ERPYACYRYWCMLPFPYSKSDRRHIRIHTGQKP [pertuzumab alternative molecule Rank 2]
